Reference: PubChem BioAssay AID445 (National Center for Advancing Translational Sciences (NCATS), 2006)
Where “and” joins values, the source holds several entries; their conditions need not be identical. Identical values can stand only once. This is one part of the list. The main result of the screen is listed elsewhere. These columns were measured beside it and carry no call. Most of these compounds were active or inconclusive in the main read-out, so they are no random draw. Words in brackets tell the shape of the fitted curve; partial curves, single points and poor fits give uncertain potencies.

Assay: IkB Signaling
Settings: ABC-DLBCL IkBa-CBG/CBR dual luciferase ratio (green luciferase fused to IkBa over red control in OCI-Ly3 lymphoma cells), 4 h; measured here: control luc red channel unless noted
Excerpt: NIH Molecular Libraries Screening Centers Network [MLSCN]
NIH Chemical Genomics Center [NCGC]
Nuclear factor kappa-B (NF-kappa-B) plays an important role in normal B cell development and survival. Diffuse large B cell lymphoma (DLBCL) is the most commonly observed type of non-Hodgkin's lymphoma. Gene expression analysis has identified an activated B cell-like subtype of DLBCL (ABC-DLBCL) which expresses known NF-kappa-B target genes. […] However, targets upstream of IKK have been largely unexplored and so nodes upstream of IKK in the NF-kappa-B pathway remain untested due to the lack of chemical probes.
A cell-sensor assay for I-kappa-B-alpha stabilization was developed with NIH investigator Dr. R. Eric Davis in Dr. Louis M. Staudt's laboratory. The assay uses green (CBG68) and red (CBR) emitting beetle luciferases [Chroma-Glo(TM) developed by Promega Corp.] where the green luciferase is fused to I-kappa-B-alpha and the red luciferase is present in its native state. Both luciferase genes are stably present in the OCI-Ly3 human ABC DLBCL cell line, but their expression is under the control of tetracycline-inducible promoters. Following the addition of doxycycline to induce expression of the luciferases, the green luminescence in control cultures rises only slowly because the CBG fusion partner I-kappa-B-alpha is targeted by IKK activity for rapid degradation. In contrast, green luminescence rises rapidly in the presence of proteasome inhibitors or IKK inhibitors. The rise in red luminescence of CBR is not affected by proteasome or IKK inhibitors, and serves as normalization for cell number and nonspecific effects. Compounds were screened as a concentration-titration series that ranged from 57 uM to 0.7 nM.
NCGC Assay Protocol Summary:
Cells were seeded in 1536-well plates at 5000 cells/3ul in IMDM medium containing 0.5% FBS, w/o phenol red, L-glutamine, 25 mM HEPES, 3 mg/ml sodium bicarbonate. After centrifugation for 1 min. at 1000 rpm, 23 nl of compounds or DMSO were delivered to each well using a pin tool. Then 1ul 80ng/ml doxycycline was dispensed into white solid 1536-well plates and the plates were incubated at 37C/5% C02 in a cell incubator for 4 hrs. Then 4 ul Chroma-Glo luminescent substrate mix (Promega) was added to each well. The plate was incubated at R.T. for 10-15 min. The plates were measured on a ViewLux plate reader for green luminescence (540/20 nm filter) and red luminescence (618/8 nm filter). The green and red luminescent signals were corrected for red and green luminescence filter overlap using previously determined filter calibration constants (determined using the procedure outlined in the Promega Technical Manual). The %Activity was determined from the ratio of corrected green/red luminescent values. Green luminescent and ratio %Activity was determined by normalizing to the difference in signal between basal cells (0% Activity) and cells incubated with 10 uM of the proteasome inhibitor MG-132 (100% Activity). Red luminescent %Activity was normalized to the difference between red luminesence in basal cells (0%Activity) and zero luminescence (-100% Activity).
Concentration-response curves were fitted to the signals arising from the green luminescence (I-kappa-B-alpha-luciferase fusion; IkB-luc) and the red luminescence (unfused luciferase; luc) as well as the calculated ratio. The concentration-effect curves were then classified based on curve quality (r2), response magnitude and degree of measured activity. Compounds were then categorized based on their concentration-response curves for all three datasets (Ikb-luc, luc and ratio).
Keywords: IKK, I-kappa-B, IkB, IkBa, cytotoxicity, luminescence, MLSMR, MLSCN, NIH Roadmap, qHTS, NCGC

Row | Compound | AC50
1 | Cc1ccc2cc3cc(C(=O)NCCCN4CCc5ccccc5C4)oc3nc2c1 | 25.1 µM [falling, partial curve]
2 | CCS(=O)(=O)N1CCc2cc(C(=O)Nc3cccc(NC(C)=O)c3)ccc21 | 31.6 µM [falling, single point]
3 | O=C(Cn1ncc2c1-c1ccccc1OC2)Nc1ccc(S(=O)(=O)N2CCCCC2)cc1 | 12.6 µM [falling, partial curve]
4 | Cc1ccc(C2c3[nH]c4ccccc4c3CCN2C(=O)CSc2ccccc2)cc1 (stereo unspecified) | 25.1 µM [falling, partial curve]
5 | S=C(S)N1CCCC1 | 31.6 µM [rising, partial curve] [measured here: IkB-luc green channel] and 39.8 µM [rising, single point] [measured here: IkB-luc green channel]
6 | N#Cc1cc2c(nc1SCc1nc3ccccc3[nH]1)CCC2 | 15.8 µM [falling, partial curve]
7 | O=C(CN1CCCN(Cc2cccc(F)c2)S1(=O)=O)Nc1ccc2c(c1)OCCO2 | 12.6 µM [falling, partial curve]
8 | Cc1cccc(-c2nc(C)c(CCNC(=O)c3cccs3)s2)c1 | 39.8 µM [falling, single point]
9 | O=C(NCC(c1cccnc1)N1CCc2ccccc2C1)C(=O)Nc1ccc(F)cc1F (stereo unspecified) | 5.01 µM [rising, partial curve]
10 | COC(=O)c1nnn(-c2ccc(Cl)cc2)c1C(=O)OC | 0.00501 µM [rising, full curve, poor fit]
11 | O=C(CCS(=O)(=O)c1nc(-c2ccc3c(c2)OCO3)cc(C(F)(F)F)n1)Nc1ccc(F)cc1F | 15.8 µM [falling, partial curve]
12 | CCS(=O)(=O)c1ncc(Cl)c(C(=O)Nc2c(C(=O)c3ccc(C)cc3)oc3ccccc23)n1 | 12.6 µM [falling, partial curve]
13 | Cc1ccc(-n2ncc(C(=O)N3CCN(C(=O)c4ccco4)CC3)c2C2CCN(C(=O)OC(C)(C)C)CC2)cc1 | 10 µM [falling, single point]
14 | CC(C)c1ccc(NC(=O)CCNS(=O)(=O)c2ccc3c(c2)oc(=O)n3C)cc1 | 25.1 µM [falling, partial curve]
15 | O=C(c1ccc2c(c1)N(Cc1cccc(Cl)c1)C(=O)c1ccccc1S2(=O)=O)N1CCCCCC1 | 31.6 µM [falling, single point]
16 | Cc1ccc2c(c1)N(C(=O)N1CCC(C(=O)NCc3cccs3)CC1)CC(C)O2 (stereo unspecified) | 5.01 µM [falling, partial curve]
